# From PubChem BioAssay AID540276 (National Center for Advancing Translational Sciences (NCATS), 2011)
# Out of some 300,000 compounds screened, about 5,400 (1.8%) were called active. The inconclusive results got no clear call from the source; some entries with a clear call stand among them for comparison. Calls follow the shape of the full dose curve; tested in HEK293 cells. Where the call is inconclusive, the potency comes from a doubtful curve fit.
# Assay: qHTS for inhibitors of binding or entry into cells for Marburg Virus
# Conditions: Marburg virus pseudotyped entry inhibition, cell reporter; activity change, negative = inhibition: at 37.8 µM (top of the series) unless noted
# % is scaled to controls: 0 for no effect and ±100 for the full control effect; potency is read from the fitted curve at half-maximal effect.
SMILES,"activity change, negative = inhibition",Potency
COC(=O)c1cccnc1-n1c(=O)c2cccnc2n(CC(=O)Nc2ccc(C)cc2C)c1=O,inactive: 8.46% [at 46.1 µM],
Cc1nc(SCc2ccc([N+](=O)[O-])cc2)n[nH]1,,"inconclusive: 11.2 µM [activator, single point]"
CCOC(=O)c1sc(NC(=O)c2ccncc2)c(C#N)c1C,,"inconclusive: 15.8 µM [inhibitor, single point]"
CN(C)CCOC(=O)COc1ccc(Cl)cc1,,"inconclusive: 4.11 µM [activator, single point]"
CC(NC(=S)Nc1ccc(F)cc1)c1ccccc1 (stereo not drawn),inactive: -1.42%,
CCC1Oc2ccccc2N(CC(=O)NCCC2=CCCCC2)C1=O (stereo not drawn),,"inconclusive: 5.8 µM [inhibitor, full curve, poor fit]"
CC(C)(C)C1=CC(=O)C(N2CCOCC2)=CC1=O,,"inconclusive: 35.5 µM [inhibitor, partial curve, poor fit]"
CN1CCc2c(sc3c2C(=O)NC(c2cn(Cc4ccccc4)c4ccccc24)N3)C1 (stereo not drawn),,"inconclusive: 35.5 µM [inhibitor, single point]"
CC(=O)c1cccc(CN2CCN(C(C)C)C(CCO)C2)c1 (stereo not drawn),,"inconclusive: 3.98 µM [activator, partial curve, poor fit]"
FC(F)(F)c1cccc(Cn2nnnc2-c2ccc(Cl)cc2)c1,,"inconclusive: 1.16 µM [inhibitor, single point]"
Cc1cccc(NC(=S)NNC(=O)c2ccc(O)cc2O)c1C,,"inconclusive: 11.2 µM [inhibitor, single point]"
COc1cccc(-c2cc(C(F)(F)F)nc(N3CCCCC3)n2)c1,,"inconclusive: 18.3 µM [inhibitor, single point]"
CCN(CC)c1ccc2c(C)c(-c3ccc(N)cc3)c(=O)oc2c1,,"inconclusive: 35.5 µM [inhibitor, single point]"
CCOc1ccc2cc(/C=C/C(=O)c3ccco3)c(Cl)nc2c1,,"inconclusive: 0.411 µM [activator, full curve, poor fit]"
Cc1ccc(Cl)cc1N1CCN(S(=O)(=O)N2CCCCC2)CC1,,"inconclusive: 35.5 µM [inhibitor, single point]"
O=C(c1ccc(S(=O)(=O)N2CCCCCC2)cc1)N1CCC(CN2C(=O)c3cccc4cccc(c34)C2=O)CC1,,"inconclusive: 35.5 µM [inhibitor, single point]"
COc1ccc(C2CC(=O)N(Cc3cccc(F)c3)c3ccccc3S2)cc1 (stereo not drawn),,"inconclusive: 35.5 µM [inhibitor, single point]"
O=C(c1cc(-c2ccncc2)nc2ccc(Cl)cc12)N1CCN(Cc2ccc3c(c2)OCO3)CC1,,"inconclusive: 7.08 µM [inhibitor, partial curve]"

# Reformatted with bars between the fields: entries from further up
SMILES | activity change, negative = inhibition | Potency
CC(C)(C)C1=CC(=O)C(N2CCOCC2)=CC1=O |  | inconclusive: 35.5 µM [inhibitor, partial curve, poor fit]
CN1CCc2c(sc3c2C(=O)NC(c2cn(Cc4ccccc4)c4ccccc24)N3)C1 (stereo not drawn) |  | inconclusive: 35.5 µM [inhibitor, single point]
